This assay concerns the target T1, Bcl-2 antagonist killer 1 (BAK) (human (endogenous in NPC cells)), Q16611.
T1 chain: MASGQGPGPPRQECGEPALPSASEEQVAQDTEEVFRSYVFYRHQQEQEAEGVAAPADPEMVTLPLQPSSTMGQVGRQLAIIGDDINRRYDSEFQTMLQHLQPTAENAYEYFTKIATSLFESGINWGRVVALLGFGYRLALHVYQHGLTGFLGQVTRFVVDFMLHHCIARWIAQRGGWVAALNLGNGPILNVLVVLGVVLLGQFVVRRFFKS
Briefly: cross-linking; NPC cells treated with NGN or transfected with let-7g mimic; 5 mM bismaleimidohexane (BMH)-treated cells fractionated into mitochondrial and ER/microsomal fractions, 10% SDS-PAGE, probed with specific antibodies. The conditions noted are these: remark: other sources report otherwise.

The values that follow come from article PMC10527334.

Results are given in words; binding and its absence hold for the method and conditions named. Binding seen in cells or lysates may run through a third protein. Some results given as binding are weak or reduced against the parent protein; the word gives no strength. Where a sequence is shown, tags or fusion partners need not be part of it.

B1: Bcl-2 antagonist killer 1 (BAK), Q16611 1-211 (protein)
chain: T1 chain
Take B1: the binding entry is on record as “binds”.
